Measured values: paper PMC8102003
No constants are given. Whether binding was seen depends on the method and setting. Binding seen in cells or lysates may run through a third protein. Some entries that bind do so weakly or less than the wild type.

The chains behind the UniProt entries cited, without tags or fusion partners. Where a name states a change or a piece, a line headed by the entry shows the natural chain unless it says otherwise. A line that says so, or that is headed by a name, gives the form on record, which may keep a tag or linker. Residues count along the entry.
UniProt Q7Z2W4: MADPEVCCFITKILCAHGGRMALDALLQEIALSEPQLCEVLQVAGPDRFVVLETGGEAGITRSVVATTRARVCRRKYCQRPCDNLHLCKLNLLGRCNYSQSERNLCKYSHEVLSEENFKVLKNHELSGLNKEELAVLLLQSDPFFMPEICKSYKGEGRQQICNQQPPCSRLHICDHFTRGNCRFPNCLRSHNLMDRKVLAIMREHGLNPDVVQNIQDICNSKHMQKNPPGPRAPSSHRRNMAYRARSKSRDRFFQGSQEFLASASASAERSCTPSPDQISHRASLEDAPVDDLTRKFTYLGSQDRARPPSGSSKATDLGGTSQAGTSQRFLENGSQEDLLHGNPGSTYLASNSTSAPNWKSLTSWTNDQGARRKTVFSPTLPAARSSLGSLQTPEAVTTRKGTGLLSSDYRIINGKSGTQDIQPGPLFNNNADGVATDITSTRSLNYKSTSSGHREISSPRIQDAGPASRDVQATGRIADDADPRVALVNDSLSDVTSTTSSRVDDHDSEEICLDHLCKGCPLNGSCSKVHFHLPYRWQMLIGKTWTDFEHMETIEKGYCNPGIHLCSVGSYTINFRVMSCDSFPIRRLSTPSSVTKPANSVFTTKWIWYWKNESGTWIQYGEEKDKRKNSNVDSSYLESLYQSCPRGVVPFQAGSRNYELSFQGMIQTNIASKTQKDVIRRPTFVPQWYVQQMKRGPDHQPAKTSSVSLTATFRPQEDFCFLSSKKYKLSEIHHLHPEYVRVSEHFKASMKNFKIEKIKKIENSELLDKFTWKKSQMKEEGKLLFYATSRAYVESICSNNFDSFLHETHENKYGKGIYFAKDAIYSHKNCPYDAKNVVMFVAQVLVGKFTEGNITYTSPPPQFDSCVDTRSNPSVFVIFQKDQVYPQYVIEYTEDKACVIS
ZAP 254 (truncated human ZAP comprising the N-terminal 254 amino acids), HA-tagged: residues 1-254 of Q7Z2W4
UniProt Q14258: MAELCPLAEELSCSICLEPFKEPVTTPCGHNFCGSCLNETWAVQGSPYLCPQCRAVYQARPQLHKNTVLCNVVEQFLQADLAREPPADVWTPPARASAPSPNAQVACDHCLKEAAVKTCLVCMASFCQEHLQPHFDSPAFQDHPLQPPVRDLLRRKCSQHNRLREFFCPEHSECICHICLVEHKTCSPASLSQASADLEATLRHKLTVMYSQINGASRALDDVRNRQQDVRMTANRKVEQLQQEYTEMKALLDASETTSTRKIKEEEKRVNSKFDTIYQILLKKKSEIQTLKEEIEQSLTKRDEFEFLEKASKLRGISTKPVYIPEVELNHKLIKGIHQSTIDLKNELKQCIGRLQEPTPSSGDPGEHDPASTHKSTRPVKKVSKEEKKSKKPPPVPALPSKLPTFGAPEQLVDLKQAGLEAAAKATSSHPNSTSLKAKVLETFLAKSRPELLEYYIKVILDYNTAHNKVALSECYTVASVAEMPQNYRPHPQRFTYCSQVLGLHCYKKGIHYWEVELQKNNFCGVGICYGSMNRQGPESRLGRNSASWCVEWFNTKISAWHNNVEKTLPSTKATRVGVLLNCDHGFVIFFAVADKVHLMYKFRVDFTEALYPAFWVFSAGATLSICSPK

Assays:
[1] = biological target: ZAP RNA^null (human ZAP-L R74A, R75A, K76A)-3xHA (human) (UniProt Q7Z2W4); assay: co-IP; HEK293T ZAP-/- TRIM25-/- cells co-transfected with HA-tagged ZAP (WT, ΔZnF or RNA^null) and untagged TRIM25 or TRIM25 7KA; anti-HA precipitation; western blot for overexpressed ZAP and TRIM25 (Fig 5G)
[2] = biological target: human ZAP-L-HA (full-length long isoform, wild type) (human) (UniProt Q7Z2W4); assay: as above
[3] = biological target: human ZAP-L-FLAG (long isoform of the zinc finger antiviral protein) (human) (UniProt Q7Z2W4); assay: co-IP; HEK293T ZAP-/- TRIM25-/- cells co-transfected with ZAP-L-FLAG and TRIM25 (full length or truncated); anti-FLAG antibody on protein G beads, 4°C 2 h; washes in lysis buffer and IP wash buffer (300 mM KCl, 0.5% Igepal); western blot (Fig 5A)
[4] = biological target: ZAP 254 (truncated human ZAP comprising the N-terminal 254 amino acids), HA-tagged (human) (UniProt Q7Z2W4); assay: co-IP; HEK293T ZAP-/- cells transfected with HA-tagged ZAP constructs only; anti-HA antibody on protein G beads, 4°C 2 h; blot for endogenous TRIM25; lysates also treated with RNase A or RNase A/T1 before precipitation (Fig 5C, 5F)
[5] = biological target: ZAP RNA^null (human ZAP-L R74A, R75A, K76A)-3xHA (human) (UniProt Q7Z2W4); assay: as above
[6] = biological target: human ZAP-L-HA (full-length long isoform, wild type) (human) (UniProt Q7Z2W4); assay: as above

Measured: binding

full-length untagged human TRIM25 (from UniProt Q14258 1-630)
binds: [1] | [2] | [3]

endogenous TRIM25 of HEK293T ZAP-/- cells (from UniProt Q14258 1-630)
binds: [4] | [5] | [6]
